The source of these data is PubChem BioAssay AID316 (DTP/NCI, 2004).

The list is a part of this screen's results and no random one: its compounds were picked by chemical class. Not every dose and run of a compound is shown. T/C is the treated group as % of the vehicle group. Where survival is the endpoint, this PubChem deposit counts one and a half times the control or more as active, and values a quarter to a half above the control carry no call in these data; other NCI protocols may use other cut-offs. Some entries show no survivor count and are marked so; the dose need not have been tolerated. Schedule codes are those of the source, read here as Q, the interval in days (D) or hours (H), X, the number of doses. Some doses were run more than once; the results are listed from low to high.

The test system of the assay is P1534 leukemia ip, CD2F1 mice, survival T/C. In words: NCI In Vivo Anticancer Drug Screen. Data for tumor model P1534 Leukemia (intraperitoneal) in CD2F1 (CDF1) mice. As to conditions: T/C endpoint: mean survival time, schedule: Q01DX010 (ip), vehicle: saline, higher T/C = longer survival. How it is done: The antitumor activity of compounds was measured in mice bearing transplantable tumors. Survival or tumor size were measured and the results are expressed as the measurement made in the treated group (T) divided by the measurement made in the vehicle treated control group (C). The tumor model used in this assay is P1534 Leukemia (intraperitoneal) in CD2F1 (CDF1) mice

Consider `CN(CCCl)CCCl`, for which the T/C is 111 [survivor count not shown] and 143 % of control [survivor count not shown] (dose: 0.13 mg/kg/injection); 133 [survivor count not shown] and 162 % of control [survivor count not shown] (dose: 0.25 mg/kg/injection); 144 [survivor count not shown] and 156 % of control [survivor count not shown] (dose: 0.5 mg/kg/injection); 137 [survivor count not shown] and 138 % of control [survivor count not shown] (dose: 1.0 mg/kg/injection); 121 % of control [survivor count not shown] (dose: 62.5 micrograms/kg/injection); 164 % of control [survivor count not shown] (dose: 125.0 micrograms/kg/injection). In addition, the T/C runs as follows: (dose: 250.0 micrograms/kg/injection) 150 % of control [survivor count not shown]; (dose: 500.0 micrograms/kg/injection) 153 % of control [survivor count not shown].
